Substitutions are numbered along the chain they refer to. These are yes or no findings as the source states them, for the method shown. Some binding calls cover weakened binding; strength is not graded here. For part of these data: Tags and fused reporters may be left off the sequences shown.

The chains are these.
B1: Hz#9 H(G)L(GG) (antibody, V domains shown, not shown: a dimerising Fc or GST)
VH: QVQLVQSGAEVKKPGASVKVSCKASGYTFTDYEMHWVRQAPGQGLEWMGAIDPETGGTAYNQKFKGRVTMTADKSISTAYMELSRLRSDDTAVYYCARPYLGYWGQGTLVTVSS
VL: EIVLTQSPGTLSLSPGERATLSCRSSQSLVHSNGNTYLHWYQQKPGQAPRLLIYKVSNRFSGIPDRFSGSGSGTDFTLTISRLEPEDFAVYYCFQGSHIPLTFGQGTKVEIKG
B2: 1-5 IgG (antibody, V domains shown)
VH: B1 VH with A59F, Y60V, N61K, Q62R
VL: EIVLTQSPGTLSLSPGERATLSCRSSQSLVHSNGNTYLHWYQQKPGQAPRLLIYKVSNRFSGIPDRFSGSGSGTDFTLTISRLEPEDFAVYYCFQGSHIPLTFGQGTKVEIK
notes: IgG; also called T1-5
B3: huAb27-9_E01 IgG (antibody, V domains shown)
VH: B1 VH with Q1E, E10D, K13E, R67W, A97T
VL: B1 VL with T10M, S32R, G113R
B4: 2-1 IgG (antibody, V domains shown)
VH: B1 VH with A59F, Y60V, N61V, Q62S
VL: B2 VL
B5: S43 IgG (antibody, V domains shown)
VH: B1 VH with T28R, E54A, T55F
VL: B2 VL
notes: IgG1; also called huAb27-9_M74; M74
B6: huAb27-9 IgG (antibody, V domains shown)
VH: B1 VH
VL: B1 VL with G113R
notes: IgG1 format; also called Hz#9 IgG; Hz #9 IgG
B7: S43 (G) (antibody, V domains shown, not shown: a dimerising Fc or GST)
VH: B1 VH with T28R, E54A, T55F
VL: B1 VL
B8: S43 H(G)L(GG) (antibody, V domains shown, not shown: a dimerising Fc or GST)
VH: B1 VH with T28R, E54A, T55F
VL: B1 VL
B9: EO1 H(GG)L(G) (antibody, V domains shown, not shown: a dimerising Fc or GST)
VH: B1 VH with Q1E, E10D, K13E, R67W, A97T
VL: B1 VL with T10M, S32R
B10: EO1 (G) (antibody, V domains shown, not shown: a dimerising Fc or GST)
VH: B1 VH with Q1E, E10D, K13E, R67W, A97T
VL: B1 VL with T10M, S32R
B11: S43 (G2) (antibody, V domains shown, not shown: a dimerising Fc or GST)
VH: B1 VH with T28R, E54A, T55F
VL: B1 VL
B12: S43 H(GG)L(G) (antibody, V domains shown, not shown: a dimerising Fc or GST)
VH: B1 VH with T28R, E54A, T55F
VL: B1 VL
B13: EO1 (G2) (antibody, V domains shown, not shown: a dimerising Fc or GST)
VH: B1 VH with Q1E, E10D, K13E, R67W, A97T
VL: B1 VL with T10M, S32R
B14: EO1 H(G)L(GG) (antibody, V domains shown, not shown: a dimerising Fc or GST)
VH: B1 VH with Q1E, E10D, K13E, R67W, A97T
VL: B1 VL with T10M, S32R
B15: huAb27-9 scFv (WT) (scFv, V domains shown, not shown: a dimerising Fc or GST; small tags and cut ends)
VH: B1 VH
VL: B2 VL
B16: T1-5 clone (Fab library output) (Fab, V domains shown)
VH: B1 VH with A59F, Y60V, N61K, Q62R
VL: B2 VL
B17: T2-1 clone (Fab library output) (Fab, V domains shown)
VH: B1 VH with A59F, Y60V, N61V, Q62S
VL: B2 VL

One assay deals with T1, TM4SF5 (antigen of SPR/BIACORE/ELISA, construct not stated) (UniProt O14894).
T1 sequence (looked up): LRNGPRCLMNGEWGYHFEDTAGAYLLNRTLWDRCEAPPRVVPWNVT
The assay can be described thus: BIACORE. Background: In SPR one partner is held on a chip, and binding of the other changes the refractive index at the surface.
With B1, the binding entry is given as “binds”.
As for B2, the binding entry is recorded as “binds”.
With B3, the binding entry is reported as “binds”.
As for B4, the binding result is on record as “binds”.
The same measure, in the same setting: as for B5, the entry is “binds”.
As for B6, the binding entry is listed as “binds”.

The target of another assay is TM4SF5 (cell-surface target on Tp cells) (UniProt O14894). The assay can be described thus: IF on cells.
In the case of B7, the binding result was “binds”.
The same measure, in the same setting: with B1 the entry was “binds”; with B2, “binds”; with B3, “binds”.
With B4, the binding result is “binds”.
For the molecule B8, the binding entry is on record as “binds”.
Still for that read-out and setting: as for B9, the entry is “binds”; as for B10, “binds”; as for B11, “binds”.
The same measure, in the same setting: as for B12, the entry is “binds”; as for B13, “binds”; as for B14, “binds”.
On to B5, for which the binding result is recorded as “binds”.
Consider B6, for which the binding result was “binds”.

The target is the same in another assay. As to the kind of experiment: FACS on cells.
Take B1: the binding result is recorded as “binds”.
B2: the binding result is “binds”.
On the same count and under the same terms, with B3 the entry was “binds”; with B4, “binds”.
On the same count and under the same terms, as for B11, the entry is “binds”; as for B14, “binds”; as for B5, “binds”.
B6: the binding result is “binds”.

The target is the same in a further assay. As to the kind of experiment: FACS on Cp and Tp cells.
On to B1, for which the binding result was “binds”.
As for B2, the binding result was “binds”.
Still for that read-out and setting: as for B3, the entry is “binds”; as for B4, “binds”.
In the case of B5, the binding entry is “binds”.
With B6, the binding entry was “binds”.

For a further assay, the target named is T1, TM4SF5 (antigen of SPR/BIACORE/ELISA, construct not stated). As to the kind of experiment: ELISA with purified scFv. Background: An ELISA detects its analyte on a solid surface through an enzyme-linked reagent.
For the molecule B15, the binding entry is “binds”.

For another assay, the target named is TM4SF5 (cell-surface target on Tp cells) (UniProt O14894). As to the kind of experiment: summary of BIACORE, FACS and IF.
Consider B1, for which the binding result is “binds”.
For B14, the binding entry was “binds”.
Turning to B5, the binding result was “binds”.

For another assay the target is unchanged. As to the kind of experiment: summary of FACS, IF and BIACORE.
Take B2: the binding entry is reported as “binds”.
Regarding B4, the binding entry was “binds”.

The target in a further assay is T1, TM4SF5 (antigen of SPR/BIACORE/ELISA, construct not stated). The assay can be described thus: BIACORE, order of binding affinity.
As for B1, the binding result is reported as “binds”.
Still for that read-out and setting: as for B3, the entry is “binds”; as for B5, “binds”; as for B6, “binds”.

The target of a further assay is TM4SF5 (cell-surface target on Tp cells) (UniProt O14894). As to the kind of experiment: FACS, cell-surface target-binding ability. Background: A flow cytometer gives signals particle by particle.
Take B7: the binding result was “binds”.
On the same count and under the same terms, as for B3, the entry is “binds”.
Consider B8, for which the binding entry is recorded as “binds”.
On to B9, for which the binding result was “binds”.
Take B10: the binding result is listed as “binds”.
The same measure, in the same setting: with B11 the entry was “binds”; with B12, “binds”; with B13, “binds”.
Still for that read-out and setting: with B14 the entry was “binds”; with B5, “binds”; with B6, “binds”.

Another assay shares this target. As to the kind of experiment: FACS on Tp cells (internalization experiment).
For the molecule B2, the binding result was “binds”.

A further assay concerns the target T2, TM4SF5-Fc antigen protein (UniProt O14894).
T2 sequence (looked up): T1 sequence (looked up)
The assay can be described thus: Biacore, TM4SF5-Fc immobilized directly on the chip.
With B6, the binding result is “binds”.

The next assay concerns the target T1, TM4SF5 (antigen of SPR/BIACORE/ELISA, construct not stated). As to the kind of experiment: ELISA normalized to expression levels, library output clones.
On to B16, for which the binding entry was “binds”.
Consider B17, for which the binding entry is “binds”.

The target in a further assay is T3, GST fusion protein (expression host cell: HEK) (UniProt O14894).
T3 sequence (looked up): T1 sequence (looked up)
The assay can be described thus: anti-human Fc capture method, GST fusion protein (HEK) as analyte.
Regarding B6, the binding result is “binds”.

A further assay deals with T4, GST fusion protein (expression host cell: E. coli) (UniProt O14894).
T4 sequence (looked up): T1 sequence (looked up)
The assay can be described thus: Biacore, anti-human Fc capture, GST fusion protein (E. coli) as analyte.
Take B3: the binding entry was “binds”.
The same measure, in the same setting: with B5 the entry was “binds”; with B6, “binds”.

(Values after EP4745157A1 (Korea Research Institute of Bioscience and Biotechnology, dated 2026).)
